# In PubChem BioAssay AID445 (National Center for Advancing Translational Sciences (NCATS), 2006):
# Some of the results follow. Further columns of the screen follow, without active or inactive calls. Most of these compounds were active or inconclusive in the main read-out, so they are no random draw. Potencies come from curve fits of mixed quality, noted in brackets.
# Experiment: IkB Signaling
# Conditions: ABC-DLBCL IkBa-CBG/CBR dual luciferase ratio (green luciferase fused to IkBa over red control in OCI-Ly3 lymphoma cells), 4 h
# Method in brief: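 Luminescence ratio of IκBα-fused green versus native red beetle luciferase in OCI-Ly3 cells, 4 h post-doxycycline with compound; red signal alone, scaled from basal (0%) to zero light (-100%), flagged nonspecific or cytotoxic effects.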
# [1] = measured here: control luc red channel unless noted
# [2] = measured here: IkB-luc green channel
# [3] = measured here: control luc red channel
structure (smiles),measurement,setting,value
CCn1c(=O)n(CC)c2cc(S(=O)(=O)N3CCC(c4ccccc4)CC3)ccc21,AC50,[1],"12.6 µM [falling, partial curve]"
CCc1ccc(NC(=O)C(=O)NCC(c2ccc3c(c2)OCO3)N2CCOCC2)cc1 (configuration not stated),AC50,[1],"12.6 µM [rising, partial curve]"
COc1ccc(-c2cc(C(=O)Nc3ccn(Cc4ccc(C)cc4)n3)no2)cc1OC,AC50,[1],"0.316 µM [rising, full curve]"
O=C(Nc1cccnc1)c1cc(-c2ccc3c(c2)OCO3)on1,AC50,[1],"3.16 µM [falling, full curve]"
CCC(C(=O)NCc1ccccc1OC)n1nc(C)n2c(cc3sccc32)c1=O (configuration not stated),AC50,[1],"39.8 µM [falling, single point]"
CCNC(=O)[C@@H]1O[C@@H](n2cnc3c(NCc4ccccc4)ncnc32)[C@@H](O)[C@H]1O,AC50,[2],"7.94 µM [rising, full curve, poor fit]"
same,AC50,[3],"0.631 µM [rising, full curve, poor fit]"
CCOC(=O)c1c(S(=O)(=O)NCC(=O)Nc2ccc(C)c(Cl)c2)c(C)n(C)c1C,AC50,[1],"25.1 µM [falling, single point]"
COc1ccc(NC(=O)C2CCCN2S(=O)(=O)c2cccc3cccnc23)cc1OC (configuration not stated),AC50,[1],"0.398 µM [rising, full curve]"
CC(=O)C1=C(C)NC(SCC(=O)c2ccc(Cl)c(Cl)c2)=C(C#N)C1c1ccco1 (configuration not stated),AC50,[1],"10 µM [falling, partial curve]"
CCOC(=O)c1cnc2ccc(C(=O)OC)cc2c1Nc1ccccc1CC,AC50,[1],"15.8 µM [falling, partial curve]"
CCCC(=O)NC(c1ccco1)c1cc(Cl)c2cccnc2c1O (configuration not stated),AC50,[1],"0.398 µM [falling, full curve]"
O=C(Nc1ccc2c(c1)ncn2-c1ccccc1)c1ccco1,AC50,[1],"10 µM [falling, partial curve]"
CCc1ccccc1N(C)C(=O)c1cnc(N2CCOCC2)c2ccccc12,AC50,[1],"0.2 µM [falling, partial curve]"
Cc1ccc(Cc2nc3ccccc3nc2SCC(=O)NCc2ccc(F)cc2)cc1,AC50,[1],"2.51 µM [falling, full curve]"
Cc1cc(Br)ccc1NC(=O)c1cn(C2CCCC2)c(=O)c2c1c1ccccc1n2C,AC50,[1],"1 µM [falling, full curve, poor fit]"
COc1ccc(CCNc2ncnc3c2c(-c2ccccc2)cn3-c2ccc(F)cc2)cc1OC,AC50,[1],"31.6 µM [falling, single point]"
Cc1cnn(-c2ccc3nnc(-c4ccc(Br)cc4)n3n2)c1,AC50,[1],"0.0794 µM [falling, full curve]"
Cc1ccc(C)c(Nc2nn3c(=O)c4ccc(C(=O)NCCc5ccccc5)cc4nc3s2)c1,AC50,[1],"10 µM [falling, partial curve]"
Cc1ccc(N2CCN(C(=O)c3c4c(nc5ccccc35)C(=O)N(C3CCCCC3)C4)CC2)c(C)c1,AC50,[1],"25.1 µM [falling, partial curve]"
CCOC(=O)N1CCN(S(=O)(=O)c2ccc(OCC)c3ccccc23)CC1,AC50,[1],"25.1 µM [falling, single point]"
COc1ccc(C(=O)Nc2nc3c(s2)CCc2cc(OC)ccc2-3)cc1,AC50,[1],"10 µM [falling, partial curve]"
COCCCn1c(SCC(=O)NCc2ccccc2)nc2c(sc3ccccc32)c1=O,AC50,[1],"6.31 µM [rising, partial curve, poor fit]"
Oc1c(C(c2ccc(Cl)cc2)N2CCC3(CC2)OCCO3)sc2nc(-c3ccco3)nn12 (configuration not stated),AC50,[1],"0.1 µM [rising, full curve, poor fit]"
N#C/C(C(N)=O)=c1/ccc2c(c1)N1C3=C(CCCC3)CC3CCCCC31N=2 (configuration not stated),AC50,[1],"10 µM [falling, partial curve]"
CCc1ccc(-c2[nH]c3c(c2-c2sc(C)c(C(=O)OC)c2O)c(=O)[nH]c(=O)n3C)cc1,AC50,[1],"12.6 µM [falling, partial curve]"
CCCCN(CC)C(=O)Cc1c(C(=O)O)[nH]c2ccc(Cl)cc12,AC50,[1],"15.8 µM [falling, partial curve]"
CCOc1ccc(CCNC(c2cccc(Cl)c2)c2nnc(-c3ccccc3)o2)cc1OCC (configuration not stated),AC50,[1],"15.8 µM [falling, partial curve]"
COC(=O)c1ccc2c(c1)N(Cc1ccc(F)cc1)C(=O)c1ccccc1S2,AC50,[1],"15.8 µM [falling, partial curve]"
COc1cccc(/C=C/c2nc(C#N)c(NCCc3ccc(OC)c(OC)c3)o2)c1,AC50,[1],"39.8 µM [falling, partial curve]"
CCCCN(CCCC)S(=O)(=O)c1ccc2oc(C(=O)NCc3ccc(C)cc3)c(C)c2c1,AC50,[1],"3.98 µM [falling, partial curve]"
CCCCN1C(=O)C(O)(c2c[nH]c3ccccc23)c2cc(Br)ccc21 (configuration not stated),AC50,[1],"25.1 µM [falling, single point]"
COc1ccc2c(c1)sc1ncc(C(=O)NCc3ccc(OC(C)C)cc3)c(=O)n12,AC50,[1],"0.0158 µM [falling, full curve, poor fit]"
O=C(Nc1nnc(-c2ccccc2)o1)c1ccc(Cl)cc1,AC50,[2],"10 µM [rising, single point]"
same,AC50,[3],"2.51 µM [falling, partial curve]"
CCCOCCOC(=O)c1[nH]c2c(c1C)C(=O)CC(c1cc(OC)ccc1OC)C2 (configuration not stated),AC50,[2],"1 µM [rising, full curve]"
same,AC50,[3],"10 µM [rising, partial curve]"
COc1ccc(-c2cc(C(F)(F)F)nc(SCCC(=O)Nc3cc(C)ccc3O)n2)cc1,AC50,[2],"15.8 µM [rising, partial curve]"
same,AC50,[3],"3.98 µM [rising, partial curve]"
CCOCCCNC(=O)c1[nH]c2cc(C)ccc2c1Sc1ccc(Cl)cc1,AC50,[1],"12.6 µM [falling, partial curve]"
COc1ccc(CCNC(=O)c2c(O)nc3c(C)cccn3c2=O)cc1,AC50,[1],"39.8 µM [falling, single point]"
COc1ccc(C(=O)N2c3ccccc3C(C)(c3ccc(Cl)cc3)CC2(C)C)cc1 (configuration not stated),AC50,[1],"3.98 µM [falling, partial curve]"
